US8735439B2, “Chlorin e6-folic acid conjugate, preparation method thereof, and a pharmaceutical composition for the treatment of cancer comprising the same” (Diatech Korea Co., Ltd., priority 2009, dated 2014)
Some entries share one result that the patent states for a list of compounds.

System: sarcoma M-1
Experiment: Accumulation kinetics of photosensitizer in rats with sarcoma M-1
Assay type: in vivo
Conditions: rats with sarcoma M-1, i.v., by 4-5 hours, regardless of dose
Protocol: The experiments were conducted on 100 white outbred rats with subcutaneous transplantation of sarcoma M-1, 7-9 days after tumor transplant. Photosensitizers were introduced to the animals via an intravenous route, once at a dose of 2.5, 5.0 and 10.0 mg/kg in a room with a low level of light. A sterile isotonic solution of sodium chloride was used as a solvent. Follow up over the dynamics of photosensitizer accumulation in tumor and normal tissues was conducted at 30 mins, 1-5 hours, and 1-6 days after photosensitizer administration.
In tumor tissues of rats with sarcoma M-1 and normal tissues (skin of opposite haunch), the dynamics of photosensitizer accumulation was analyzed by the method of measurement of life time using computer fluorescent spectrophotometry. For this purpose, a laser-fiber spectroanalyzer “LESA-6” with a helium-neon diagnostic laser “LHN 633-25” (BIOSPEC, Moscow) was used. This allows an estimate locally of the level of photosensitizer accumulation in any organs and tissues accessible for an optical fiber probe.
For real time monitoring at every hour after administration of the drug, the distal end of a catheter was placed over the tumor and normal tissues, and the intensity of the drug accumulation was recorded on the wave length corresponding to maximum fluorescence. […]

[γ-(6-aminohexyl)folic acid]-chlorin e6 [chlorin e6 conjugate]
accumulation in tumor tissue relative to normal tissue: 2-3 times
